Measurements taken from PMC4938799, “LD Motif Recognition by Talin: Structure of the Talin-DLC1 Complex” (Structure(London, England:1993), 2016).
These are yes or no findings as the source states them, for the method shown. In cells and extracts the contact can be indirect. Some entries that bind do so weakly or less than the wild type.

Protein sequences, listed by entry. Tags and fused reporters are not part of them. Lines headed by an entry give the natural chain unless they say otherwise; changes in a name come on top. Chains listed by the source or under a name are the forms on record and can include a tag or linker. Residues count along the entry.
GST-talin R8 (amino acids 1,453–1,580), wild type (P26039, residues 1453-1580): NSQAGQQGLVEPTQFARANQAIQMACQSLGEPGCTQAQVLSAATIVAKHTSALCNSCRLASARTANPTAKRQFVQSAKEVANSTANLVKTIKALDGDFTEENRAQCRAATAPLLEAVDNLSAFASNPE
GST-talin R8 (1,453–1,580) K1530E/K1544E (2E) (P26039, form named): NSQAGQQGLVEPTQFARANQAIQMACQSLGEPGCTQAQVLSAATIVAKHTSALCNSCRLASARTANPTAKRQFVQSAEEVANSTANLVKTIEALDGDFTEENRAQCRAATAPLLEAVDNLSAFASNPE
UniProt P49023: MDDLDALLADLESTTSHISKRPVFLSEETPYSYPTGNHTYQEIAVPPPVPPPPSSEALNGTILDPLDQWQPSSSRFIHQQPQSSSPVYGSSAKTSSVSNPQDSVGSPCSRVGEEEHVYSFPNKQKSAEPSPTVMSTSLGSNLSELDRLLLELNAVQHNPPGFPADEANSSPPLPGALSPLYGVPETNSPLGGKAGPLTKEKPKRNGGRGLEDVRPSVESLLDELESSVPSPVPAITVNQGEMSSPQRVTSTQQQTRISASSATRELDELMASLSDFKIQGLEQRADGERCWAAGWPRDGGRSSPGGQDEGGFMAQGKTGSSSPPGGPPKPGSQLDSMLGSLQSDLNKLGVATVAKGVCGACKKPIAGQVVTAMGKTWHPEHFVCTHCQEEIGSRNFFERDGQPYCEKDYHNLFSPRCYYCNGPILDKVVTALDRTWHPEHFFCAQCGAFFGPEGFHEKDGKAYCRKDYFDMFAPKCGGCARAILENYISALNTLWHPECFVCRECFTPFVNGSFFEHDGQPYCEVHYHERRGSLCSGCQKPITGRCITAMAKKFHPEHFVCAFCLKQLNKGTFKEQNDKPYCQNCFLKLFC

How the values were obtained:
[1] = target: GST-talin R8 (1,453–1,580) K1530E/K1544E (2E) (UniProt P26039); experiment: pull-down; HEK293 cells co-transfected with paxillin-DDK and GST-R8 (wild type or mutants); GST pull-down
[2] = target: GST-talin R8 (amino acids 1,453–1,580), wild type (UniProt P26039); experiment: as above

**Q.** Which results are given for “paxillin-DDK (from UniProt P49023 1-591)”?
**A.** binding [1]: binds; binding [2]: binds
